In PMC3513622 (Antiviral research, 2012):

Tested on: Epstein-Barr virus (EBV)

Structure (SMILES): CO[C@@H]1[C@H](N(C)C(=O)c2ccccc2)C[C@H]2O[C@]1(C)n1c3ccccc3c3c4c(c5c6ccccc6n2c5c31)C(=O)NC4 [PKC-412]
- TI (therapeutic index, CC50/IC50 ratio): 2
